Results are given in words; binding and its absence hold for the method and conditions named. In cells and extracts the contact can be indirect. Some binding calls cover weakened binding; strength is not graded here.
What was measured:
[1] = biological target: T1, Fsd2 (Fibronectin Type III and SPRY Domain Containing 2) (mouse (endogenous in mouse muscle and heart)) (UniProt Q8BZ52); assay: co-IP; IPs with Fsd2 and Esd antibodies; western blotting of the immunoprecipitates
T1 sequence: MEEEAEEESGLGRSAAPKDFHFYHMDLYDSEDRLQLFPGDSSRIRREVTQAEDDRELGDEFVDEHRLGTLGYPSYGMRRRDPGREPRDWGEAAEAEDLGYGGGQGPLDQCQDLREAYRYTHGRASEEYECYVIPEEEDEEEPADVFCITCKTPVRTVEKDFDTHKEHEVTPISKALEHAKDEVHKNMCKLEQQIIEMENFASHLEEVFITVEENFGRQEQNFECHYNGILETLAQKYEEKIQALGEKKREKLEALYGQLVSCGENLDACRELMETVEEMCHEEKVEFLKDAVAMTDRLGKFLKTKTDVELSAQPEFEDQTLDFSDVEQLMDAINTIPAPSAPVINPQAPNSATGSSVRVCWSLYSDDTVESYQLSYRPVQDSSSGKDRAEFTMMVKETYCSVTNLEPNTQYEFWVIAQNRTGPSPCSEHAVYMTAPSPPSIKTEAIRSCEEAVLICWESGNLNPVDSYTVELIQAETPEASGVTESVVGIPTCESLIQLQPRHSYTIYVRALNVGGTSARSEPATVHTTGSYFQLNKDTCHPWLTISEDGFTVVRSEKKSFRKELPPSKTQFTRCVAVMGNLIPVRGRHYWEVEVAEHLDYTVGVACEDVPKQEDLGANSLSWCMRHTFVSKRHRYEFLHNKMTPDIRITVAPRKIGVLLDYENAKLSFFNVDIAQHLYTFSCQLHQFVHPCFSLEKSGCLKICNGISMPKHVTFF

[2] = biological target: T2, Esd (Esterase D, a serine hydrolase) (mouse (endogenous in mouse muscle and heart)) (UniProt Q9R0P3); assay: as above
T2 sequence: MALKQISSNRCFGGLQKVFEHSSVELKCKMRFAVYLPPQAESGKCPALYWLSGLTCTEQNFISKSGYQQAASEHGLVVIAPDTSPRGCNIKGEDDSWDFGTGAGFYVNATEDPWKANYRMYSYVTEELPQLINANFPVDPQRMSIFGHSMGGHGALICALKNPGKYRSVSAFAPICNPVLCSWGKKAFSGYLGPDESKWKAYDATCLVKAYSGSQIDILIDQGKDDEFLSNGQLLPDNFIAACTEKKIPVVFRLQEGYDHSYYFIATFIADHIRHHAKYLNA

B1: Esd (Esterase D, a serine hydrolase) (enzyme, UniProt Q9R0P3 1-282)
chain: MALKQISSNRCFGGLQKVFEHSSVELKCKMRFAVYLPPQAESGKCPALYWLSGLTCTEQNFISKSGYQQAASEHGLVVIAPDTSPRGCNIKGEDDSWDFGTGAGFYVNATEDPWKANYRMYSYVTEELPQLINANFPVDPQRMSIFGHSMGGHGALICALKNPGKYRSVSAFAPICNPVLCSWGKKAFSGYLGPDESKWKAYDATCLVKAYSGSQIDILIDQGKDDEFLSNGQLLPDNFIAACTEKKIPVVFRLQEGYDHSYYFIATFIADHIRHHAKYLNA
binding [1]: binds

B2: Fsd2 (Fibronectin Type III and SPRY Domain Containing 2) (protein, UniProt Q8BZ52 1-716)
chain: MEEEAEEESGLGRSAAPKDFHFYHMDLYDSEDRLQLFPGDSSRIRREVTQAEDDRELGDEFVDEHRLGTLGYPSYGMRRRDPGREPRDWGEAAEAEDLGYGGGQGPLDQCQDLREAYRYTHGRASEEYECYVIPEEEDEEEPADVFCITCKTPVRTVEKDFDTHKEHEVTPISKALEHAKDEVHKNMCKLEQQIIEMENFASHLEEVFITVEENFGRQEQNFECHYNGILETLAQKYEEKIQALGEKKREKLEALYGQLVSCGENLDACRELMETVEEMCHEEKVEFLKDAVAMTDRLGKFLKTKTDVELSAQPEFEDQTLDFSDVEQLMDAINTIPAPSAPVINPQAPNSATGSSVRVCWSLYSDDTVESYQLSYRPVQDSSSGKDRAEFTMMVKETYCSVTNLEPNTQYEFWVIAQNRTGPSPCSEHAVYMTAPSPPSIKTEAIRSCEEAVLICWESGNLNPVDSYTVELIQAETPEASGVTESVVGIPTCESLIQLQPRHSYTIYVRALNVGGTSARSEPATVHTTGSYFQLNKDTCHPWLTISEDGFTVVRSEKKSFRKELPPSKTQFTRCVAVMGNLIPVRGRHYWEVEVAEHLDYTVGVACEDVPKQEDLGANSLSWCMRHTFVSKRHRYEFLHNKMTPDIRITVAPRKIGVLLDYENAKLSFFNVDIAQHLYTFSCQLHQFVHPCFSLEKSGCLKICNGISMPKHVTFF
binding [2]: binds

— publication PMC10502019
